{"sequences": {"note": "Chains of the proteins cited; added tags and fusions are not shown. Lines headed by an entry give the natural chain unless they say otherwise; changes in a name come on top.", "UniProt Q61527": "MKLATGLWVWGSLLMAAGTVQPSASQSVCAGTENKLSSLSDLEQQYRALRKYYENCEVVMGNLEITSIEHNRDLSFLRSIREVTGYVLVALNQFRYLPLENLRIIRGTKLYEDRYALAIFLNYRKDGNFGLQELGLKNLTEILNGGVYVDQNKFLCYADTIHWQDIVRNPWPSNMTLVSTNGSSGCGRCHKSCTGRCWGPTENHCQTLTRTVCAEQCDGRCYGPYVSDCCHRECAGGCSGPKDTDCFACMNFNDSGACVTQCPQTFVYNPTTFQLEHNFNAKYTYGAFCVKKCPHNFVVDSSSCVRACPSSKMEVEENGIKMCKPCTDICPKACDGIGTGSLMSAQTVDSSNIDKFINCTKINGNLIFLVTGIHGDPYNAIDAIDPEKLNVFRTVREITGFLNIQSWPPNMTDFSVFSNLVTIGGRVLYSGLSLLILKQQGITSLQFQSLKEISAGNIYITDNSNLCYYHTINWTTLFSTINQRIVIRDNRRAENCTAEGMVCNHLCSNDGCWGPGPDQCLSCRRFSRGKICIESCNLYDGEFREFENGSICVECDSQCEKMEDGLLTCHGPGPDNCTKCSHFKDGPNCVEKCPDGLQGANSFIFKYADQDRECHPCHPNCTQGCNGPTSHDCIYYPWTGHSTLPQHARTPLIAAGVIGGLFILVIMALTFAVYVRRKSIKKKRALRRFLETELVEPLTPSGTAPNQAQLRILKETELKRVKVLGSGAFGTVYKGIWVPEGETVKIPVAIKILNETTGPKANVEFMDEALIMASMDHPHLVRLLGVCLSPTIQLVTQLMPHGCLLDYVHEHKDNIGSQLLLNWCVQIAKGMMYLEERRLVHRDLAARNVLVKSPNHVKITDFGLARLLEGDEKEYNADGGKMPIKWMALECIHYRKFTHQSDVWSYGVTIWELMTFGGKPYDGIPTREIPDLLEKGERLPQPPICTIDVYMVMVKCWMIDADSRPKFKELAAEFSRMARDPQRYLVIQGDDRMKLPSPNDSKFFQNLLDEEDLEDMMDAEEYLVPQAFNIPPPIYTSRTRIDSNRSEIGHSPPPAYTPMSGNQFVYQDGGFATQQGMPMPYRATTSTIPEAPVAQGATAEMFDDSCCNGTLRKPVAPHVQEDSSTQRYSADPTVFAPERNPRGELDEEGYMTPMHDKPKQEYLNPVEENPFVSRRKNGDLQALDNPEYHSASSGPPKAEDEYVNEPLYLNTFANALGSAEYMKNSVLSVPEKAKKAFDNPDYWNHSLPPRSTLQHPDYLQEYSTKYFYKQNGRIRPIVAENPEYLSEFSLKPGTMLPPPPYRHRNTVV"}, "source": "paper doi:10.1101/2022.10.05.510958", "binders": {"B1": {"name": "dynamin-2 (endogenous, primary mouse cardiomyocytes) (protein, UniProt P39054 1-870)", "chain": "MGNRGMEELIPLVNKLQDAFSSIGQSCHLDLPQIAVVGGQSAGKSSVLENFVGRDFLPRGSGIVTRRPLILQLIFSKTEYAEFLHCKSKKFTDFDEVRQEIEAETDRVTGTNKGISPVPINLRVYSPHVLNLTLIDLPGITKVPVGDQPPDIEYQIKDMILQFISRESSLILAVTPANMDLANSDALKLAKEVDPQGLRTIGVITKLDLMDEGTDARDVLENKLLPLRRGYIGVVNRSQKDIEGKKDIRAALAAERKFFLSHPAYRHMADRMGTPHLQKTLNQQLTNHIRESLPTLRSKLQSQLLSLEKEVEEYKNFRPDDPTRKTKALLQMVQQFGVDFEKRIEGSGDQVDTLELSGGARINRIFHERFPFELVKMEFDEKDLRREISYAIKNIHGVRTGLFTPDLAFEAIVKKQVVKLKEPCLKCVDLVIQELISTVRQCTSKLSSYPRLREETERIVTTYIREREGRTKDQILLLIDIEQSYINTNHEDFIGFANAQQRSTQLNKKRAIPNQGEILVIRRGWLTINNISLMKGGSKEYWFVLTAESLSWYKDEEEKEKKYMLPLDNLKIRDVEKGFMSNKHVFAIFNTEQRNVYKDLRQIELACDSQEDVDSWKASFLRAGVYPEKDQAENEDGAQENTFSMDPQLERQVETIRNLVDSYVAIINKSIRDLMPKTIMHLMINNTKAFIHHELLAYLYSSADQSSLMEESAEQAQRRDDMLRMYHALKEALNIIGDISTSTVSTPVPPPVDDTWLQNTSGHSPTPQRRPVSSVHPPGRPPAVRGPTPGPPLIPMPVGATSSFSAPPIPSRPGPQSVFANNDPFSAPPQIPSRPARIPPGIPPGVPSRRAPAAPSRPTIIRPAEPSLLD"}}, "biological_target": "ERBB4 (endogenous, primary mouse cardiomyocytes) (mouse (endogenous in primary neonatal cardiomyocytes)) (UniProt Q61527)", "test": "proximity ligation", "note": "These are yes or no findings as the source states them, for the method shown. In cells and extracts the contact can be indirect. Binding calls can cover weak binding; strength is not graded here.", "data": [{"binder": "B1", "values": [{"measurement": "binding", "value": "binds"}]}]}
